Measured values from patent US7691866B2, “2,6-disubstituted quinazolines, quinoxalines, quinolines and isoquinolines and methods of their use as inhibitors of Raf kinase” (Novartis Vaccines and Diagnostics, Inc., priority 2003, dated 2010).
Some results were stated once for a whole list of compounds, not compound by compound.

Target: Raf kinase
Experiment: Raf/Mek Filtration Assay or Biotinylated Raf Screen (procedures of Examples 94 or 95)
Format: biochemical, human
Conditions: using the procedures of Examples 94 or 95; assay and Raf isoform not specified per compound; read-out: raf kinase inhibitory activity at an IC50

Structure (SMILES) | IC50
CNC(=O)c1cc(Oc2ccc3nc(Nc4ccc(Br)cc4)ncc3c2)ccn1 [Example 1, (4-{2-[(4-bromophenyl)amino]quinazolin-6-yloxy}-(2-pyridyl))-N-methylcarboxamide] | < 5 µM
O=C(N[C@@H]1CCNC1)c1cc(Oc2ccc3nc(Nc4ccc(Br)cc4)ncc3c2)ccn1 [Example 2, 4-({2-[(4-bromophenyl)amino]-quinazolin-6-yl}oxy)-N-[(3R)-pyrrolidin-3-yl]pyridine-2-carboxamide] | < 5 µM
CNC(=O)c1cc(Oc2ccc3nc(N(C)c4ccc(Br)cc4)ncc3c2)ccn1 [Example 3, 4-({2-[(4-bromophenyl)(methyl)-amino]quinazolin-6-yl}oxy)-N-methylpyridine-2-carboxamide] | < 5 µM
CNC(=O)c1cc(Oc2ccc3nc(Nc4ccc(Br)c(C(F)(F)F)c4)ncc3c2)ccn1 [Example 4, 4-[(2-{[4-bromo-3-(trifluoro-methyl)phenyl]amino}quinazolin-6-yl)oxy]-N-methylpyridine-2-carboxamide] | < 5 µM
CNC(=O)c1cc(Oc2ccc3nc(Nc4ccc(C)cc4)ncc3c2)ccn1 [Example 5, N-methyl-4-({2-[(4-methylphenyl)-amino]quinazolin-6-yl}oxy)-pyridine-2-carboxamide] | < 5 µM
CNC(=O)c1cc(Oc2ccc3nc(Nc4ccc(Oc5ccccc5)cc4)ncc3c2)ccn1 [Example 6, N-methyl-4-[(2-{[4-(phenyloxy)phenyl]amino}quinazolin-6-yl)oxy]pyridine-2-carboxamide] | < 5 µM
CNC(=O)c1cc(Oc2ccc3nc(Nc4ccc(Br)c(Cl)c4)ncc3c2)ccn1 [Example 7, 4-({2-[(4-bromo-3-chlorophenyl)amino]quinazolin-6-yl}oxy)-N-methylpyridine-2-carboxamide] | < 5 µM
CNC(=O)c1cc(Oc2ccc3nc(Nc4ccc(Br)c(F)c4)ncc3c2)ccn1 [Example 8, 4-({2-[(4-bromo-3-fluorophenyl)-amino]quinazolin-6-yl}oxy)-N-methylpyridine-2-carboxamide] | < 5 µM
CNC(=O)c1cc(Oc2ccc3nc(N(C)c4ccccc4)ncc3c2)ccn1 [Example 9, N-methyl-4-({2-[methyl(phenyl)-amino]quinazolin-6-yl}oxy)-pyridine-2-carboxamide] | < 5 µM
CNC(=O)c1cc(Oc2ccc3nc(N(C)c4ccc(Cl)cc4)ncc3c2)ccn1 [Example 10, 4-({2-[(4-chlorophenyl)(methyl)-amino]quinazolin-6-yl}oxy)-N-methylpyridine-2-carboxamide] | < 5 µM
CNC(=O)c1cc(Oc2ccc3nc(N(C)c4ccc(OC(F)(F)F)cc4)ncc3c2)ccn1 [Example 11, N-methyl-4-{[2-(methyl{4-[(trifluoromethyl)oxy]phenyl}amino)quinazolin-6-yl]oxy}pyridine-2-carboxamide] | < 5 µM
CNC(=O)c1cc(Oc2ccc3nc(N(C)c4ccc(F)cc4)ncc3c2)ccn1 [Example 12, 4-({2-[(4-fluorophenyl)(methyl)amino]quinazolin-6-yl}oxy)-N-methylpyridine-2-carboxamide] | < 5 µM
CNC(=O)c1cc(Oc2ccc3nc(N(C)c4ccc(C)cc4)ncc3c2)ccn1 [Example 13, N-methyl-4-({2-[methyl(4-methyl-phenyl)amino]quinazolin-6-yl}-oxy)pyridine-2-carboxamide] | < 5 µM
CNC(=O)c1cc(Oc2ccc3nc(Nc4ccc(C5CCCCC5)cc4)ncc3c2)ccn1 [Example 14, 4-({2[(4-cyclohexylphenyl)-amino]quinazolin-6-yl}oxy)-N-methylpyridine-2-carboxamide] | < 5 µM
CNC(=O)c1cc(Oc2ccc3nc(Nc4ccc(Cl)cc4)ncc3c2)ccn1 [Example 15, 4-({2-[(4-chlorophenyl)amino]-quinazolin-6-yl}oxy)-N-methyl-pyridine-2-carboxamide] | < 5 µM
CNC(=O)c1cc(Oc2ccc3nc(Nc4ccc5ccccc5c4)ncc3c2)ccn1 [Example 16, N-methyl-4-{[2-(naphthalen-2-ylamino)-quinazolin-6-yl]oxy}pyridine-2-carboxamide] | < 5 µM
CNC(=O)c1cc(Oc2ccc3nc(Nc4ccc(OC(F)(F)F)cc4)ncc3c2)ccn1 [Example 17, N-methyl-4-{[2-({4-[(trifluoro-methyl)oxy]phenyl}amino)-quinazolin-6-yl]oxy}pyridine-2-carboxamide] | < 5 µM
CNC(=O)c1cc(Oc2ccc3nc(Nc4ccc(C(F)(F)F)cc4)ncc3c2)ccn1 [Example 18, N-methyl-4-[(2-{[4-(trifluoromethyl)phenyl]amino}quinazolin-6-yl)oxy]pyridine-2-carboxamide] | < 5 µM
CNC(=O)c1cc(Oc2ccc3nc(Nc4cc(C(F)(F)F)ccc4F)ncc3c2)ccn1 [Example 19, 4-[(2-{[2-fluoro-5-(trifluoromethyl)phenyl]amino}quinazolin-6-yl)oxy]-N-methylpyridine-2-carboxamide] | < 5 µM
CNC(=O)c1cc(Oc2ccc3nc(Nc4cccc(C(F)(F)F)c4)ncc3c2)ccn1 [Example 20, N-methyl-4-[(2-{[3-(trifluoromethyl)phenyl]amino}quinazolin-6-yl)oxy]pyridine-2-carboxamide] | < 5 µM

Structure (SMILES) | IC50
CNC(=O)c1cc(Oc2ccc3nc(Nc4ccc(Br)c(C)c4)ncc3c2)ccn1 [Example 21, 4-({2-[(4-bromo-3-methylphenyl)amino]quinazolin-6-yl}oxy)-N-methylpyridine-2-carboxamide] | < 5 µM
CNC(=O)c1cc(Oc2ccc3nc(Nc4ccc(F)c(C(F)(F)F)c4)ncc3c2)ccn1 [Example 22, 4-[(2-{[4-fluoro-3-(trifluoromethyl)phenyl]amino}quinazolin-6-yl)oxy]-N-methylpyridine-2-carboxamide] | < 5 µM
CNC(=O)c1cc(Oc2ccc3nc(Nc4ccc(SC)cc4)ncc3c2)ccn1 [Example 23, N-methyl-4-[(2-{[4-(methylthio)phenyl]amino}quinazolin-6-yl)oxy]pyridine-2-carboxamide] | < 5 µM
CNC(=O)c1cc(Oc2ccc3nc(Nc4ccc(OCc5ccccc5)cc4)ncc3c2)ccn1 [Example 24, N-methyl-4-{[2-({4-[(phenylmethyl)oxy]phenyl}amino)quinazolin-6-yl]oxy}pyridine-2-carboxamide] | < 5 µM
CNC(=O)c1cc(Oc2ccc3nc(Nc4ccc(N5CCOCC5)cc4)ncc3c2)ccn1 [Example 25, N-methyl-4-({2-[(4-morpholin-4-ylphenyl)amino]quinazolin-6-yl}oxy)pyridine-2-carboxamide] | < 5 µM
CNC(=O)c1cc(Oc2ccc3nc(Nc4ccc(Cl)nc4)ncc3c2)ccn1 [Example 26, 4-({2-[(6-chloropyridin-3-yl)amino]quinazolin-6-yl}oxy)-N-methylpyridine-2-carboxamide] | < 5 µM
CNC(=O)c1cc(Oc2ccc3nc(Nc4ccc(Cl)c(C(F)(F)F)c4)ncc3c2)ccn1 [Example 27, 4-[(2-{[4-chloro-3-(trifluoromethyl)phenyl]amino}quinazolin-6-yl)oxy]-N-methylpyridine-2-carboxamide] | < 5 µM
CNC(=O)c1cc(Oc2ccc3nc(Nc4cc(Cl)cc(Cl)c4)ncc3c2)ccn1 [Example 28, 4-({2-[(3,5-dichlorophenyl)amino]quinazolin-6-yl}oxy)-N-methylpyridine-2-carboxamide] | < 5 µM
CNC(=O)c1cc(Oc2ccc3nc(Nc4ccc(OC)nc4)ncc3c2)ccn1 [Example 29, N-methyl-4-[(2-{[6-(methyloxy)pyridin-3-yl]amino}quinazolin-6-yl)oxy]pyridine-2-carboxamide] | < 5 µM
CNC(=O)c1cc(Oc2ccc3nc(Nc4ccccc4)ncc3c2)ccn1 [Example 30, N-methyl-4-{[2-(phenylamino)quinazolin-6-yl]oxy}pyridine-2-carboxamide] | < 5 µM
CNC(=O)c1cc(Oc2ccc3nc(NC4CC5CCC4C5)ncc3c2)ccn1 (stereo not shown) [Example 31, 4-{[2-(bicyclo[2.2.1]hept-2-ylamino)quinazolin-6-yl]oxy}-N-methylpyridine-2-carboxamide] | < 5 µM
CNC(=O)c1cc(Oc2ccc3nc(NC4CCCCC4)ncc3c2)ccn1 [Example 32, 4-{[2-(cyclohexylamino)quinazolin-6-yl]oxy}-N-methylpyridine-2-carboxamide] | < 5 µM
CNC(=O)c1cc(Oc2ccc3nc(NCc4ccccc4)ncc3c2)ccn1 [Example 33, N-methyl-4-({2-[(phenylmethyl)amino]quinazolin-6-yl}oxy)pyridine-2-carboxamide] | < 5 µM
CNC(=O)c1cc(Oc2ccc3nc(NCCc4ccccc4)ncc3c2)ccn1 [Example 34, N-methyl-4-({2-[(2-phenylethyl)amino]quinazolin-6-yl}oxy)pyridine-2-carboxamide] | < 5 µM
CCN1CCCC1CNc1ncc2cc(Oc3ccnc(C(=O)NC)c3)ccc2n1 (stereo not shown) [Example 35, 4-[(2-{[(1-ethylpyrrolidin-2-yl)methyl]amino}quinazolin-6-yl)oxy]-N-methylpyridine-2-carboxamide] | < 5 µM
CNC(=O)c1cc(Oc2ccc3nc(Nc4ccc(C(C)C)cc4Br)ncc3c2)ccn1 [Example 36, 4-[(2-{[2-bromo-4-(1-methylethyl)phenyl]amino}quinazolin-6-yl)oxy]-N-methylpyridine-2-carboxamide] | < 5 µM
CNC(=O)c1cc(Oc2ccc3nc(Nc4ccc(Br)cc4F)ncc3c2)ccn1 [Example 37, 4-({2-[(4-bromo-2-fluorophenyl)amino]quinazolin-6-yl}oxy)-N-methylpyridine-2-carboxamide] | < 5 µM
CNC(=O)c1cc(Oc2ccc3nc(Nc4ccc(Cl)cc4Cl)ncc3c2)ccn1 [Example 38, 4-({2-[(2,4-dichlorophenyl)amino]-quinazolin-6-yl}oxy)-N-methyl-pyridine-2-carboxamide] | < 5 µM
CNC(=O)c1cc(Oc2ccc3nc(Nc4nccc5ccccc45)ncc3c2)ccn1 [Example 39, 4-{[2-(isoquinolin-1-ylamino)-quinazolin-6-yl]oxy}-N-methyl-pyridine-2-carboxamide] | < 5 µM
CNC(=O)c1cc(Oc2ccc3nc(Nc4ccccc4Br)ncc3c2)ccn1 [Example 40, 4-({2-[(2-bromophenyl)amino]-quinazolin-6-yl}oxy)-N-methyl-pyridine-2-carboxamide] | < 5 µM
